The record followed here is ChEMBL document CHEMBL4699547, “Design, synthesis, and multitargeted profiling of N-benzylpyrrolidine derivatives for the treatment of Alzheimer's disease” (Bioorg Med Chem, 2020).

The series is described as follows: Permeability of the compound at 25 ug/ml after 18 hrs by PAMPA-BBB assay. Background: PAMPA measures passive passage across an artificial lipid membrane.

What is called Papp is a coefficient for how fast a substance crosses the barrier. `COc1cc2c(cc1OC)C(=O)C(CC1CCN(Cc3ccccc3)CC1)C2` (stereo unspecified) [DONEPEZIL] registered a Papp at 18 h, 25 ug/ml of 7.2 ×10⁻⁶ cm/s.
